PubChem BioAssay AID686938 – Drosophila RNAi Screening Center, 2013
The screen tested about 23,000 reagents; below is a random part of those with a known target gene and a result. Over the whole deposit, 75 (0.33%) got an active call. 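Raw plate signals without normalisation; calls rest on plate z-scores that were not deposited; ratio present for only 364 wells.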 Not stated in the record: the dose of the treatment.

- Assay: 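Knock-downs reducing store-operated calcium influx in Drosophila cells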 (primary screen)
- Cell system: Drosophila S2R+ cells
- Reagents: long dsRNA against Drosophila genes, about 0.25 µg dsRNA per well, roughly 10,000 cells
- Timing: 5 days of knock-down before the calcium assay
- Treatment: thapsigargin (SERCA pump blocker) to empty calcium stores; entry signal taken 4 min after adding it
- Read-out: 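Duplicate raw fluo-4 intensities per well from a plate reader, at rest and four minutes after thapsigargin emptied calcium stores; entry-to-rest ratio filled for only some wells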
- Direction: calcium entry signal: higher = stronger calcium signal after store depletion; entry to resting ratio: higher = more calcium entry relative to resting level; resting calcium signal: higher = higher resting calcium signal
- Call rule: 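Hit if the duplicate-averaged plate z-score for entry over resting signal is under −3; wells with weak total dye signal (Fmax z < −2) or more than 5 off-targets removed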
- Calls: active = strongly reduced calcium entry; inactive = no strong reduction

| Target gene | amplicon | calcium entry signal, replicate 1 (fluorescence units) | calcium entry signal, replicate 2 (fluorescence units) | entry to resting ratio | resting calcium signal, replicate 1 (fluorescence units) | resting calcium signal, replicate 2 (fluorescence units) | Call |
| --- | --- | --- | --- | --- | --- | --- | --- |
| CG12204 | DRSC19442 | 3.07e7 | 3.86e7 | – | 1.47e7 | 1.57e7 | inactive |
| Lar | DRSC01707 | 2.56e7 | 4.20e7 | – | 1.60e7 | 2.01e7 | inactive |
| Lar | DRSC03361 | 4.46e7 | – | – | 2.35e7 | – | inactive |
| gem | DRSC06093 | 4.59e7 | 4.69e7 | – | 1.96e7 | 2.13e7 | inactive |
| gem | DRSC06847 | 2.72e7 | 3.79e7 | – | 1.32e7 | 1.58e7 | inactive |
| TfIIS | DRSC03455 | 4.28e7 | – | – | 2.18e7 | – | inactive |
| Octbeta2R | DRSC12917 | 3.15e7 | 5.29e7 | – | 1.66e7 | 2.23e7 | inactive |
| Octbeta2R | DRSC15350 | 3.80e7 | 4.03e7 | – | 2.04e7 | 2.10e7 | inactive |
| Octbeta2R | DRSC16165 | 4.14e7 | 3.59e7 | – | 2.05e7 | 1.79e7 | inactive |
| Gbeta5 | DRSC17754 | 3.35e7 | 3.70e7 | – | 1.49e7 | 1.56e7 | inactive |
| wor | DRSC03637 | 4.32e7 | 2.96e7 | – | 1.92e7 | 1.49e7 | inactive |
| side-VIII | DRSC05880 | 3.36e7 | 3.87e7 | – | 1.70e7 | 3.47e7 | inactive |
| side-VIII | DRSC05883 | 2.22e7 | 4.59e7 | – | 1.09e7 | 4.12e7 | inactive |
| side-VIII | DRSC06157 | 4.02e7 | 4.35e7 | – | 1.83e7 | 2.40e7 | inactive |
| side-VIII | DRSC23187 | 5.14e7 | 3.69e7 | – | 2.56e7 | 1.54e7 | inactive |
| gig | DRSC11351 | 2.61e7 | 3.83e7 | – | 1.23e7 | 2.73e7 | inactive |
| Elp5 | DRSC08547 | 2.87e7 | 4.53e7 | – | 1.59e7 | 2.03e7 | inactive |
| CG31612 | DRSC03697 | 3.83e7 | 1.89e7 | – | 2.04e7 | 1.10e7 | inactive |
| CG31612 | DRSC03698 | 4.25e7 | 4.43e7 | – | 2.09e7 | 1.88e7 | inactive |
| CG10996 | DRSC19363 | 2.23e7 | 2.25e7 | – | 1.16e7 | 1.14e7 | inactive |
| CG32845 | DRSC07867 | 2.86e7 | 4.14e7 | – | 1.47e7 | 1.77e7 | inactive |
| Prp19 | DRSC07434 | 2.68e7 | 3.34e7 | – | 1.69e7 | 1.90e7 | inactive |
| SREBP | DRSC11182 | 1.60e7 | 1.36e7 | – | 1.30e7 | 1.08e7 | inactive |
| ORY | DRSC22883 | 3.85e7 | 3.19e7 | – | 1.82e7 | 1.31e7 | inactive |
| CG14219 | DRSC19576 | 3.50e7 | 4.62e7 | – | 1.96e7 | 2.20e7 | inactive |
| CG33523 | DRSC09814 | 2.19e7 | 3.45e7 | – | 1.09e7 | 1.51e7 | inactive |
| CG33523 | DRSC22155 | 3.25e7 | 5.07e7 | – | 1.48e7 | 2.52e7 | inactive |
| CG9294 | DRSC04537 | 4.49e7 | 5.42e7 | – | 2.16e7 | 2.37e7 | inactive |
| Chro | DRSC11630 | 4.75e7 | 4.97e7 | – | 2.67e7 | 3.94e7 | inactive |
| Amy-d | DRSC05919 | 4.74e7 | 4.32e7 | – | 2.18e7 | 2.03e7 | inactive |
| CG34342 | DRSC09756 | 2.92e7 | 4.26e7 | – | 1.38e7 | 1.87e7 | inactive |
| CG34342 | DRSC22515 | 4.78e7 | 3.02e7 | – | 2.73e7 | 1.39e7 | inactive |
| Cpr64Ac | DRSC08462 | 3.82e7 | 4.14e7 | – | 2.02e7 | 1.85e7 | inactive |
| twin | DRSC15259 | 3.50e7 | 3.07e7 | – | 1.81e7 | 1.65e7 | inactive |
| twin | DRSC15831 | 4.71e7 | 4.26e7 | – | 2.41e7 | 1.73e7 | inactive |
| twin | DRSC21363 | 2.30e7 | 2.59e7 | – | 1.23e7 | 1.24e7 | inactive |
| CG43902 | DRSC17850 | 6.04e7 | 4.20e7 | – | 2.70e7 | 1.89e7 | inactive |
| CG43902 | DRSC17999 | 4.48e7 | 3.80e7 | – | 2.18e7 | 1.96e7 | inactive |
| CG10139 | DRSC05972 | 3.82e7 | 4.40e7 | – | 1.71e7 | 1.86e7 | inactive |
| CheB74a | DRSC09503 | 4.33e7 | 4.93e7 | – | 1.92e7 | 2.26e7 | inactive |
| anchor | DRSC10861 | 3.25e7 | 4.23e7 | – | 1.42e7 | 2.85e7 | inactive |

Individual results from above:
Under “Call”, twin [DRSC21363] is entered as inactive
Under “calcium entry signal, replicate 1 (fluorescence units)”, gig [DRSC11351] has 2.61e7
Entry of Amy-d [DRSC05919] under “resting calcium signal, replicate 2 (fluorescence units)”: 2.03e7
Under “Call”, CG32845 [DRSC07867] has inactive
Result for gem [DRSC06093] in “calcium entry signal, replicate 2 (fluorescence units)”: 4.69e7
For “Call”, CG9294 [DRSC04537] shows inactive

The list goes on.
| Target gene | amplicon | calcium entry signal, replicate 1 (fluorescence units) | calcium entry signal, replicate 2 (fluorescence units) | entry to resting ratio | resting calcium signal, replicate 1 (fluorescence units) | resting calcium signal, replicate 2 (fluorescence units) | Call |
| --- | --- | --- | --- | --- | --- | --- | --- |
| CG1764 | DRSC19779 | 4.25e7 | 4.65e7 | – | 2.06e7 | 2.07e7 | inactive |
| CG4168 | DRSC01446 | 2.90e7 | 3.24e7 | – | 1.64e7 | 1.65e7 | inactive |
| CG4168 | DRSC01447 | 2.78e7 | 2.96e7 | – | 1.54e7 | 1.55e7 | inactive |
| CG4168 | DRSC01933 | 4.42e7 | – | – | 2.09e7 | – | inactive |
| CG4168 | DRSC21319 | 2.38e7 | 2.69e7 | – | 1.28e7 | 1.22e7 | inactive |
| CG4168 | DRSC22789 | 4.35e7 | 3.40e7 | – | 2.02e7 | 1.61e7 | inactive |
| Mon1 | DRSC00336 | 3.76e7 | 3.46e7 | – | 1.82e7 | 1.69e7 | inactive |
| Nup43 | DRSC16279 | 3.69e7 | 3.61e7 | – | 3.96e7 | 1.77e7 | inactive |
| CG5986 | DRSC15931 | 4.27e7 | 3.20e7 | – | 2.01e7 | 1.50e7 | inactive |
| CG2124 | DRSC18208 | 3.82e7 | 4.36e7 | – | 1.73e7 | 2.09e7 | inactive |
| CG12730 | DRSC17885 | 2.12e7 | 3.92e7 | – | 1.15e7 | 1.78e7 | inactive |
| DIP2 | DRSC08582 | 4.14e7 | 4.24e7 | – | 1.92e7 | 2.11e7 | inactive |
| CG31145 | DRSC13634 | 3.36e7 | 3.70e7 | – | 1.66e7 | 1.78e7 | inactive |
| CG31145 | DRSC14206 | 2.62e7 | 3.53e7 | – | 1.30e7 | 1.51e7 | inactive |
| CG31145 | DRSC14670 | 2.23e7 | 3.07e7 | – | 1.33e7 | 1.38e7 | inactive |
| CG31145 | DRSC14671 | 3.04e7 | 3.42e7 | – | 1.42e7 | 1.40e7 | inactive |
| MED6 | DRSC16500 | 2.64e7 | 3.41e7 | – | 1.31e7 | 1.59e7 | inactive |
| 5-HT7 | DRSC12635 | 4.50e7 | 4.48e7 | – | 1.92e7 | 2.00e7 | inactive |
| Rsph3 | DRSC09696 | 5.30e7 | 3.41e7 | – | 3.16e7 | 1.45e7 | inactive |
| Rsph3 | DRSC10211 | 3.84e7 | 5.80e7 | – | 1.92e7 | 2.50e7 | inactive |
| Mp | DRSC10193 | 4.64e7 | 3.76e7 | – | 2.84e7 | 1.88e7 | inactive |
| Mp | DRSC11029 | 3.86e7 | 3.90e7 | – | 1.79e7 | 1.68e7 | inactive |
| Mp | DRSC11030 | 4.01e7 | 5.33e7 | – | 1.98e7 | 2.28e7 | inactive |
| Asph | DRSC06783 | 4.66e7 | 5.49e7 | – | 1.89e7 | 2.46e7 | inactive |
| Asph | DRSC07171 | 3.16e7 | 3.06e7 | – | 1.54e7 | 1.58e7 | inactive |
| MED26 | DRSC17126 | 3.89e7 | 3.45e7 | – | 1.74e7 | 1.42e7 | inactive |
| MED26 | DRSC17147 | 3.33e7 | 4.14e7 | 2 | 1.64e7 | 1.93e7 | inactive |
| MED26 | DRSC17148 | 2.78e7 | 2.92e7 | – | 1.46e7 | 1.57e7 | inactive |
| Pdfr | DRSC18614 | 2.61e7 | 3.19e7 | 1.8 | 1.41e7 | 1.48e7 | inactive |
| Coq9 | DRSC22913 | 4.36e7 | 3.60e7 | – | 2.53e7 | 1.77e7 | inactive |
| mei-P22 | DRSC11366 | 2.39e7 | 4.04e7 | – | 1.23e7 | 1.87e7 | inactive |
| lz | DRSC18790 | 3.78e7 | 4.88e7 | – | 1.80e7 | 2.69e7 | inactive |
| lz | DRSC22302 | 2.96e7 | 4.00e7 | – | 1.47e7 | 2.24e7 | inactive |
| rtet | DRSC14160 | 4.07e7 | 4.11e7 | – | 1.82e7 | 1.75e7 | inactive |
